“And” between values parts separate entries of the source, which are not always exact repeats. Equal entries are not always repeated. Screen size: about 59,000 compounds; about 6,500 (11%) were called active. The shares of active, inactive and inconclusive entries below differ from those in the screen. No stated cut-off is given here; in the data, active means max dye-equivalent concentration above about 10 nM; inconclusive means mostly about 1.1 nM to 9.6 nM; inactive means weaker than that.
Assay: qHTS Assay for Spectroscopic Profiling in A350 Spectral Region
Settings: Compound autofluorescence, 340/450 nm, Alexa 350 dye-equivalents; hits give high values

| Compound | max dye-equivalent concentration | outcome |
| --- | --- | --- |
| COc1ccc(Oc2ncc3nc(-c4ccc(Cl)cc4)c(=O)n(C4CC4)c3n2)cc1 | inactive |  |
| COC(=O)c1c(C)cc(C)n2c1nc1ccccc12 | active: 1.4e-07 M |  |
| COC(=O)CN(c1ccccn1)S(=O)(=O)c1ccccc1 | inactive |  |
| Cc1cc(C)n(C(=O)c2ccc(NC(=O)C3COc4ccccc4O3)cc2)n1 (centres undefined) | inactive |  |
| COc1ccc(NC2CS(=O)(=O)CC2NCc2ccco2)cc1 (centres undefined) | inactive |  |
| Cn1c(=O)c(C#N)c(-c2ccccc2)n2cnnc12 | inconclusive: 2.3e-09 M |  |
| O=C(CSc1ccc2nnc(-c3cccc(F)c3)n2n1)NCc1ccco1 | inconclusive: 6.6e-09 M |  |
| NC(=O)Nc1ccc(Oc2c(F)c(F)c(F)c(F)c2F)cc1 | inactive |  |
| COc1ccc(Oc2cn[nH]c2-c2ccc(O)cc2O)cc1 | inconclusive: 1.1e-09 M |  |
| CCN(CC)CCOC(=O)C1(C2CCCCC2)CCCCC1 | inconclusive: 1.1e-09 M |  |
| COc1ccc2c(=O)c3c(=O)n(Cc4ccco4)c(-c4ccc(C)cc4)nc3oc2c1 | inactive |  |
| COc1ccc(C2C3=C(CC(C)(C)CC3=O)Oc3ncn(CC(C)C)c(=N)c32)cc1 (centres undefined) | inconclusive: 1.2e-09 M |  |
| CCOC(=O)CCSc1nc(C)c2ccccc2n1 | inconclusive: 1.6e-09 M |  |
| CN(C)c1ccc(-c2nn3c(-c4ccc(Cl)cc4Cl)nnc3s2)cc1 | active: 1.8e-07 M |  |
| O=C1CC(c2ccc(F)cc2)C2=C(CCCC2=O)N1 (centres undefined) | active: 3.3e-08 M |  |
| O=C(O)c1nc2nc(Cl)c(Cl)nc2[nH]1 | inconclusive: 3.9e-09 M |  |
| COc1cccc(CNC(=O)C2CCCN(S(=O)(=O)c3c(C)n[nH]c3C)C2)c1 (centres undefined) | inactive |  |
| CC/C=C\C[C@H]1C(=O)CC[C@@H]1CC(=O)O | inactive |  |
| Cc1c(C(=O)N(Cc2cccs2)C2CCS(=O)(=O)C2)oc2ccccc12 (centres undefined) | inconclusive: 1.2e-09 M |  |
| CCOC(=O)c1sc2nc(SCC(=O)NCc3ccco3)n(Cc3ccccc3)c(=O)c2c1C | inconclusive: 4.6e-09 M |  |
| CCCC(=O)N1CCN(c2ccc(NC(=O)c3ccc(Br)o3)cc2)CC1 | inconclusive: 4.7e-09 M |  |
| CC1Cc2cc(/C(O)=C3/C(=O)C(=O)N(Cc4ccco4)C3c3cccs3)ccc2O1 (centres undefined) | inactive |  |
| Cc1noc(C)c1-c1ccc2ncnc(NC3CC3)c2c1 | inactive |  |
| Cc1cc2c(c(=O)n1C)C(Cc1ccccc1)C(C#N)=C(N)O2 (centres undefined) | active: 6.9e-07 M |  |

| Compound | max dye-equivalent concentration | outcome |
| --- | --- | --- |
| O=C1CC(C(=O)N(c2cccc(F)c2)C(C(=O)NC2CCCC2)c2ccccn2)CS1 (centres undefined) | inconclusive: 1.2e-09 M |  |
| CCOC(=O)C1CCCN(C(=O)c2cnn3c(C(F)(F)F)cc(-c4ccccc4)nc23)C1 (centres undefined) | active: 1.1e-08 M |  |
| O=c1cnc2cnc(N3CCOCC3)nc2n1Cc1cccs1 | inconclusive: 8.6e-09 M |  |
| CCCc1nnc(NC(=O)c2cccc(OC)c2)s1 | inconclusive: 1.3e-09 M |  |
| Cc1nc2cnc(N(C)C)nc2n(Cc2cccs2)c1=O | active: 3e-08 M |  |
| CN(C)CCCN1c2ccccc2Sc2ccc(C(F)(F)F)cc21 | inconclusive: 3.4e-09 M and inconclusive: 1.2e-09 M | inactive |
| COc1cccc(CSc2nnc(-c3ccc(F)cc3)o2)c1 | inconclusive: 1.5e-09 M |  |
| C=CCn1c(O)c(CN2CCN(Cc3ccccc3)CC2)c(C)c(C#N)c1=O | active: 1.3e-08 M |  |
| O=C(NCc1ccco1)c1ccccc1NS(=O)(=O)c1ccc2c(c1)OCCO2 | inconclusive: 3.2e-09 M |  |
| Cc1nc2scc(-c3ccccc3)c2c(=O)n1N | active: 2.7e-08 M |  |
| CC(=O)Nc1cccc(-c2nc3ccc(NC(C)=O)cc3[nH]2)c1 | inconclusive: 7.2e-09 M |  |
| Nc1nsnc1C(=O)NCCO | active: 2.9e-08 M |  |
| O=C(CSc1nc2ccccc2c(=O)n1NC(=O)Cc1ccccc1)NCc1ccco1 | inactive |  |
| CCOC(=O)c1cc(NC(=O)Nc2ccc(OC)c(OC)c2)c(C)nc1C | inconclusive: 1.3e-09 M |  |
| O=C(c1ccco1)N1CCN(c2nc(C(F)(F)F)nc3c2nnn3Cc2ccccc2)CC1 | inactive |  |
| COC(=O)c1ccc(COc2ccc(-c3nn[nH]n3)cc2)cc1 | inactive |  |
| O=C(Cc1c(F)c(F)c(F)c(F)c1F)OC12CC3CC(C1)C(=O)C(C3)C2 | inconclusive: 1.2e-09 M |  |
| Cc1ccc(-c2ccc(=O)n(CCC(=O)NCc3ccccn3)n2)cc1 | inconclusive: 1.6e-09 M |  |
| Cc1[nH]c(=S)[nH]c(=O)c1Cc1ccccc1 | inactive |  |
| Nc1cccc(NC(=O)c2cccs2)c1 | active: 1.6e-07 M |  |
| CCCS(=O)(=O)N1CCN(C(=O)c2cccs2)CC1 | inactive |  |
| COc1ccc(-n2c(=O)c(-c3cc(F)cc(F)c3)nc3cnc(N(C)C)nc32)cc1 | inconclusive: 4.3e-09 M |  |
| COc1ccc(Oc2ncc3nc(-c4ccccc4)c(=O)n(Cc4cccs4)c3n2)cc1 | inactive |  |
| CCn1c2ccccc2c2cc(C3C(C#N)=C(N)OC4=C3C(=O)CC(C)(C)C4)ccc21 (centres undefined) | inactive |  |

| Compound | max dye-equivalent concentration | outcome |
| --- | --- | --- |
| c1ccc(N=P(c2nc3ccccc3o2)(N2CCOCC2)N2CCOCC2)cc1 | inconclusive: 1.4e-09 M |  |
| Cn1c(C(=O)O)cc2cc(F)ccc21 | inconclusive: 2.7e-09 M |  |
| Cc1cc(C)c(S(=O)(=O)N(C)CC(=O)NC2CCCC2)c(C)c1 | inconclusive: 7.7e-09 M |  |
| Cc1ccc(-c2noc(CNCCCN(C)C)n2)cc1 | inconclusive: 8.2e-09 M |  |
| Cc1sc2ncnc(SC(C)C#N)c2c1C (centres undefined) | inconclusive: 1.2e-09 M |  |
| COc1cccc(Cn2c(=O)c(-c3cccs3)nc3cnc(N4CCN(C)CC4)nc32)c1 | inconclusive: 1.9e-09 M |  |
| O=C(Nc1ccc(SC(F)F)cc1)C1=COCCO1 | inconclusive: 7.7e-09 M |  |
| c1ccc(-n2nnnc2SCCCSc2nc3ccccc3s2)cc1 | inconclusive: 1.7e-09 M |  |
| COc1cc2c(C#N)c(N3CCCCC3)nc(N)c2c(N)n1 | active: 3.2e-07 M |  |
| CC[N+](C)(CC)CCOC(=O)C(O)(c1ccccc1)C1CCCCC1 (centres undefined) | inconclusive: 2.4e-09 M |  |
| CC(C)(C)NC(=O)NC(=O)COC(=O)c1ccco1 | inconclusive: 2.1e-09 M |  |
| O=C(NCc1ccc2c(c1)OCO2)c1ccncc1 | active: 1.4e-08 M |  |
| C(=Nc1cnc2ccccc2c1)c1ccc2ccccc2n1 | active: 1.8e-07 M |  |
| Cc1cc(=O)[nH]c(SCC2(O)C3CC4CC(C3)CC2C4)n1 (centres undefined) | inconclusive: 2.1e-09 M |  |
| O=C(Cn1nnc(-c2ccc(S(=O)(=O)N3CCCC3)cc2)n1)NCC1CCCO1 (centres undefined) | inconclusive: 6.2e-09 M |  |
| O=C(CSc1nnc(-c2ccccc2)o1)c1nnc(-c2ccccc2)o1 | inactive |  |
| O=C(O)c1ccc(SSc2ccc(C(=O)O)cn2)nc1 | inactive |  |
| O=C(CCCn1c(=S)[nH]c2cc3c(cc2c1=O)OCO3)N1CCN(c2ccc(F)cc2)CC1 | inconclusive: 5e-09 M |  |
| O=C1c2oc3ccccc3c(=O)c2C(c2ccc(Br)cc2)N1c1ncccn1 (centres undefined) | active: 1.3e-08 M |  |
| Cc1cc(C)c2c(N)c(S(=O)(=O)c3ccccc3)sc2n1 | active: 7.5e-08 M |  |
| Cn1c(NCCCO)nc2c(c1=O)C1(CCCCC1)Cc1ccccc1-2 | active: 1.1e-07 M |  |
| CCNc1ncc2nc(-c3ccc(Cl)cc3)c(=O)n(Cc3cccc(OC)c3)c2n1 | active: 1.2e-08 M |  |
| O=C(COc1ccc(F)cc1)N(CC1=CCS(=O)(=O)C1)c1ccccc1 | inactive |  |
| COc1ccc(-n2nc(C(=O)NCc3ccco3)c3c4ccccc4n(C)c3c2=O)cc1 | active: 1.6e-08 M |  |

Arranged by number of heavy atoms (falling): 21 of the compounds above

| Compound | max dye-equivalent concentration | outcome |
| --- | --- | --- |
| CCOC(=O)c1sc2nc(SCC(=O)NCc3ccco3)n(Cc3ccccc3)c(=O)c2c1C | inconclusive: 4.6e-09 M |  |
| O=C(c1ccco1)N1CCN(c2nc(C(F)(F)F)nc3c2nnn3Cc2ccccc2)CC1 | inactive |  |
| COc1cccc(Cn2c(=O)c(-c3cccs3)nc3cnc(N4CCN(C)CC4)nc32)c1 | inconclusive: 1.9e-09 M |  |
| CCn1c2ccccc2c2cc(C3C(C#N)=C(N)OC4=C3C(=O)CC(C)(C)C4)ccc21 (centres undefined) | inactive |  |
| CCNc1ncc2nc(-c3ccc(Cl)cc3)c(=O)n(Cc3cccc(OC)c3)c2n1 | active: 1.2e-08 M |  |
| O=C(NCc1ccco1)c1ccccc1NS(=O)(=O)c1ccc2c(c1)OCCO2 | inconclusive: 3.2e-09 M |  |
| COc1cccc(CNC(=O)C2CCCN(S(=O)(=O)c3c(C)n[nH]c3C)C2)c1 (centres undefined) | inactive |  |
| CCOC(=O)c1cc(NC(=O)Nc2ccc(OC)c(OC)c2)c(C)nc1C | inconclusive: 1.3e-09 M |  |
| Cc1ccc(-c2ccc(=O)n(CCC(=O)NCc3ccccn3)n2)cc1 | inconclusive: 1.6e-09 M |  |
| CN(C)c1ccc(-c2nn3c(-c4ccc(Cl)cc4Cl)nnc3s2)cc1 | active: 1.8e-07 M |  |
| CN(C)CCCN1c2ccccc2Sc2ccc(C(F)(F)F)cc21 | inconclusive: 3.4e-09 M and inconclusive: 1.2e-09 M | inactive |
| O=c1cnc2cnc(N3CCOCC3)nc2n1Cc1cccs1 | inconclusive: 8.6e-09 M |  |
| COc1ccc(Oc2cn[nH]c2-c2ccc(O)cc2O)cc1 | inconclusive: 1.1e-09 M |  |
| COC(=O)CN(c1ccccn1)S(=O)(=O)c1ccccc1 | inactive |  |
| O=C(O)c1ccc(SSc2ccc(C(=O)O)cn2)nc1 | inactive |  |
| CCCc1nnc(NC(=O)c2cccc(OC)c2)s1 | inconclusive: 1.3e-09 M |  |
| Cc1nc2scc(-c3ccccc3)c2c(=O)n1N | active: 2.7e-08 M |  |
| Cc1sc2ncnc(SC(C)C#N)c2c1C (centres undefined) | inconclusive: 1.2e-09 M |  |
| Nc1cccc(NC(=O)c2cccs2)c1 | active: 1.6e-07 M |  |
| Cn1c(C(=O)O)cc2cc(F)ccc21 | inconclusive: 2.7e-09 M |  |
| Nc1nsnc1C(=O)NCCO | active: 2.9e-08 M |  |

The results go on:

| Compound | max dye-equivalent concentration | outcome |
| --- | --- | --- |
| CC(C)(Oc1ccc(Cl)cc1)C(=O)OCC(=O)N1CCCC1 | inactive |  |
| CCOC(=O)c1cnc(=O)[nH]c1C | inconclusive: 1.5e-09 M |  |
| O=C1COc2ccc(C(=O)COC(=O)Cn3cnc4ccccc43)cc2N1 | inactive |  |
| COc1cc(C(=O)NCCC(=O)NCCN2CCCCCC2)cc(OC)c1OC | inconclusive: 1.2e-09 M |  |
| CCNc1ncc2nc(CCc3ccccc3)c(=O)n(CCC#N)c2n1 | active: 2.6e-07 M |  |
| Cn1c(=O)c(-c2ccc(Cl)cc2)nc2cnc(Oc3ccccc3)nc21 | inconclusive: 9e-09 M |  |
| COc1ccc(-c2c(NC(C)=O)n(C)c3ccccc3c2=O)cc1 | inactive |  |
| N#Cc1c(-c2ccco2)cc(C2CC2)nc1N | active: 6e-07 M |  |
| COCCNC(=O)c1ccccc1NC(=O)COc1ccccc1 | inconclusive: 2.9e-09 M |  |
| Nc1nc(CSc2nnnn2-c2ccccc2)nc(N2CCCc3ccccc32)n1 | inconclusive: 9.2e-09 M |  |
| O=C1CC(Cc2ccccc2)C(=O)N1c1ccc(Cl)cn1 (centres undefined) | inconclusive: 1.2e-09 M |  |
| Nc1nc(CSc2nc3ccccc3[nH]2)nc(N2CCOCC2)n1 | inconclusive: 1.9e-09 M |  |
| C=CCn1c(N)c(C(=O)Nc2ccccc2)c2nc3ccccc3nc21 | active: 1e-08 M |  |
| CCSc1nnc(NC(=O)C2CCCCC2)s1 | inactive |  |
| Cc1ccc(-n2c(SCc3nnc4n3CCC4)nnc2-c2ccccc2)cc1 | inconclusive: 1.2e-09 M |  |
| CC(C)C(=O)Nc1ccc2c(c1)nc1n2CCSC1 | inconclusive: 2.3e-09 M |  |
| O=C(CN1CCCCC1)Nc1ccc(S(=O)(=O)NC2CCCCC2)cc1 | inconclusive: 1.3e-09 M |  |
| COCCN1CCn2c(nc3cc(NC(=O)NC4CCCCC4)ccc32)C1 | active: 1.5e-07 M |  |
| Cc1c(-c2ccccc2)c(P(=O)(N2CCOCC2)N2CCOCC2)c2ccccn12 | active: 1.2e-06 M |  |
| CCCCN(CC)CCNC(=O)Cn1cnc2sc(C)c(S(=O)(=O)N3CCOCC3)c2c1=O | inconclusive: 1.4e-09 M |  |
| Cc1cc2ccccc2c[n+]1CC(O)C[n+]1cc2ccccc2cc1C | active: 1e-08 M |  |

Source: PubChem BioAssay AID590 (National Center for Advancing Translational Sciences (NCATS), 2007)
